# According to PubChem BioAssay AID488838 (National Center for Advancing Translational Sciences (NCATS), 2010):
# Protein sequences, listed by entry. Tags and fused reporters are not part of them.
# UniProt P08659, whole entry, looked up: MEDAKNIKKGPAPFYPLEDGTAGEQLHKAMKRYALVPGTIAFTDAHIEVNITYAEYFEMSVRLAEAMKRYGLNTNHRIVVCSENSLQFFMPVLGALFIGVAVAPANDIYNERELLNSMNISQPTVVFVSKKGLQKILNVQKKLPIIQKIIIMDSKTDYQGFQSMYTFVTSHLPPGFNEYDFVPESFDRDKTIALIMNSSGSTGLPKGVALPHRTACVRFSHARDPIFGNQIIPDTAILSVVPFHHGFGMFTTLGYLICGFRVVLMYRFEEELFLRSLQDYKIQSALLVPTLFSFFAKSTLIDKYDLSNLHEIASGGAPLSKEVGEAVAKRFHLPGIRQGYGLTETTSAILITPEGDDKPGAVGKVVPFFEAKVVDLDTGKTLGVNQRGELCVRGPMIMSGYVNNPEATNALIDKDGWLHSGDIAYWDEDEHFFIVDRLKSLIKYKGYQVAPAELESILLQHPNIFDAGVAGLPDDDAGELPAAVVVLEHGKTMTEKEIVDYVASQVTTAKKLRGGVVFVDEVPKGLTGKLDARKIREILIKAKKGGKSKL
# Inconclusive results, whose numbers are uncertain, are shown with a selection of clear calls. A potency beside an inconclusive call is a rough fit, not a confirmed value. The source made the active and inactive calls. Calls follow the shape of the dose curve; as a rule, active = well fitted inhibition curve with a large enough effect; inconclusive = small, poorly fitted or top-dose-only effect; inactive = flat fitted curve, though single readings scatter.
# Biological target: Luciferin 4-monooxygenase (Photinus pyralis) (UniProt P08659)
# Assay: Counterscreen Assay for Enhancers of SMN2 Splice Variant Expression: Interaction with Luciferase Reporter for Further Probe SAR
# Conditions: purified firefly luciferase, luminescence, 5 min; activity change, negative = inhibition: at the top concentration
# Excerpt: NIH Chemical Genomics Center [NCGC] NIH Molecular Libraries Probe Production centers Network [MLPCN] MLPCN Grant: R03 MH084179-01 Assay Submitter (PI): Elliot Androphy NCGC Assay Overview: Spinal muscular atrophy (SMA) is caused by insufficient levels of the survival motor neuron protein SMN. The SMN locus on chromosome 5q13 contains two inverted copies of SMN called SMN1 and SMN2 which are 99% identical at the amino acid level. SMN1 is a fully functional protein and SMN2 skips exon 7 90% of the time. Skipping of exon 7 produces non-functional protein product. 10% of the SMN2 protein includes exon 7 and is fully functional. In the SMA disease state, mutations in the SMN1 locus are the cause of the disease state. Because only 10% of SMN2 is of the fully functional form, it is not sufficient to overcome the deficiency produced by the loss of the SMN1 product. A therapy that either increases the amount of SMN2 product made increases the inclusion of exon 7 has been proposed for the treatment of SMA. We have designed an assay to identify small molecules that can increase the amount of functional SMN2 product by appending a luciferase reporter gene after the native SMN2 gene, such that inclusion of exon 7 in the expressed product places the luciferase sequence in frame, thus generating functional luciferase enzyme. One potential source of false positives in the primary screening assay is stabilization of the reporter luciferase via direct binding. This assay attempts to identify such compounds by screening directly for luciferase activity in the absence of the cellular system.
# NCGC Assay Protocol Summary: The primary screen utilizes a luciferase reporter gene assay, combining the promoter and splicing based cassettes in tandem with the major portion of the native SMN1 cDNA, and then transfected into HEK293 cells. Compounds that modulate luciferase signal presumably modulate expression of […]. In this assay, we utilize purified firefly luciferase in lieu of a cellular reporter to identify compounds interacting directly with luciferase in the primary screen. Sequence, Parameter, Value, Description (1) Reagent, 2.5 uL, Enzyme in buffer (note A) (2) Compound, 23 nL, From stock solutions (3) Time, 5 minutes, Room temp (4) Reagent#2.5 ul, Luciferase detection reagent (note B) (5) Detector, 1 sec integrate, Luminescent read on Viewlux (note C) Sigma enzyme (1 mg) considered to be MW 61,000 diluted in 357 ul assay buffer to 50 uM stock. A - Enzyme and buffer consists of 50 mM Tris-acetate pH 7.6, 10 mM Mg acetate 0.05% BSA, 0.01% Tween and 5 nM firefly luciferase B - Detection reagent = britelite plus diluted 1:10 in PBS C - Viewlux settings were 1 second integration medium sensitivity Keywords: Spinal muscular atrophy, SMA, SMN2, high throughput screening, MLSMR, MLPCN, NIH Roadmap, qHTS and NCGC
SMILES,Potency,"activity change, negative = inhibition"
NC(=O)C1CCN(c2ncc(-c3cccc(N4CCOCC4)c3)s2)CC1,"inconclusive: 80 µM [inhibitor, partial curve]",–
NC(=O)C1CCN(c2ncc(-c3ccc4c(c3)OCCO4)s2)CC1,active: 5.05 µM,–
NC(=O)N1CCN(c2nc(-c3ccc(Br)cc3)cs2)CC1,"inconclusive: 127 µM [inhibitor, partial curve]",–
NC(=O)C1CCN(c2ncc(-c3ccc(Br)cc3)s2)CC1,active: 4.01 µM,–
NC(=O)C1CCN(c2ncc(Br)cn2)CC1,–,inactive: -12.9%
CC(C)(C)OC(=O)NC1CCN(c2nc(-c3ccc(Br)cc3)cs2)CC1,–,inactive: -14.5%
O=C(NCCCCc1ccccc1)C1CCN(c2nc(-c3ccc(Br)cc3)cs2)CC1,"inconclusive: 142 µM [inhibitor, partial curve]",–
CNC(=O)C1CCN(c2nc(-c3ccc(Br)cc3)cs2)CC1,"inconclusive: 40.1 µM [inhibitor, partial curve]",–
CC(C)Oc1cccc(-c2csc(N3CCC(C(N)=O)CC3)n2)c1,"inconclusive: 45 µM [inhibitor, partial curve]",–
NC(=O)C1CCN(c2nc(-c3cccc(C(F)(F)F)c3)cs2)CC1,–,inactive: -27.4%
NC(=O)C1CCN(c2nc(-c3cccc(F)c3)cs2)CC1,"inconclusive: 71.3 µM [inhibitor, partial curve]",–
NC(=O)C1CCN(c2nc(-c3ccc(Cl)cc3)cs2)CC1,"inconclusive: 31.8 µM [inhibitor, partial curve]",–
CN(C)c1cccc(-c2nnc(N3CCC(C(N)=O)CC3)s2)c1,"inconclusive: 80 µM [inhibitor, partial curve, poor fit]",–
CN(C)c1cccc(-c2ccnc(N3CCC(C(N)=O)CC3)n2)c1,"inconclusive: 35.7 µM [inhibitor, partial curve]",–
COc1ccc(-c2cnc(N3CCC(C(N)=O)CC3)s2)cc1OC,–,inactive: -15.6%
CCOC(=O)C1CCN(c2ncc(-c3ccc4c(c3)OCCCO4)s2)CC1,active: 8 µM,–
Cc1ccc(-c2cnc(N3CCC(C(N)=O)CC3)s2)cc1,active: 5.05 µM,–
CN(C)C(=O)C1CCN(c2nc(-c3ccc(Br)cc3)cs2)CC1,active: 8 µM,–
O=C(C1CCN(c2nc(-c3ccc(Br)cc3)cs2)CC1)N1CCNCC1,–,inactive: 9.84%
CC(C)COc1ccc(-c2csc(N3CCC(C(N)=O)CC3)n2)cc1,"inconclusive: 71.3 µM [inhibitor, partial curve]",–

SMILES,Potency,"activity change, negative = inhibition"
NC(=O)C1CCN(c2nc(-c3ccccc3[N+](=O)[O-])cs2)CC1,"inconclusive: 80 µM [inhibitor, partial curve, poor fit]",–
O=C(Nc1ccccc1)C1CCN(c2nc(-c3ccc(Br)cc3)cs2)CC1,"inconclusive: 63.5 µM [inhibitor, partial curve]",–
NC(=O)C1CCN(c2nc(-c3ccc([N+](=O)[O-])cc3)cs2)CC1,"inconclusive: 566 µM [inhibitor, partial curve, poor fit]",–
CCOC(=O)C1CCN(c2nc(-c3ccc(Br)cc3)cs2)CC1,–,inactive: -28.1%
CN(C)c1cccc(-c2nccc(N3CCC(C(N)=O)CC3)n2)c1,–,inactive: -19.7%
O=C(c1ccccc1)N1CCN(c2nc(-c3ccc(Br)cc3)cs2)CC1,–,inactive: -22.2%
NC(=O)C1CCN(c2nc(-c3ccc(OCc4ccccc4)cc3)cs2)CC1,"inconclusive: 179 µM [inhibitor, partial curve, poor fit]",–
NC(=O)C1CCN(c2nc(-c3ccc(N)cc3)cs2)CC1,"inconclusive: 127 µM [inhibitor, partial curve]",–
COc1ccccc1-c1csc(N2CCC(C(N)=O)CC2)n1,–,inactive: -21.1%
NC(=O)C1CCN(c2nc(-c3ccc(-c4ccccc4)cc3)cs2)CC1,"inconclusive: 713 µM [inhibitor, partial curve]",–
NC1CCN(c2nc(-c3ccc(Br)cc3)cs2)CC1,active: 2.01 µM,–
NC(=O)C1CCN(c2nc(-c3ccccc3)cs2)CC1,"inconclusive: 63.5 µM [inhibitor, partial curve]",–
CN(C)c1cccc(-c2ncc(F)c(N3CCC(C(N)=O)CC3)n2)c1,"inconclusive: 160 µM [inhibitor, partial curve]",–
Cc1cccc(-c2csc(N3CCC(C(N)=O)CC3)n2)c1,"inconclusive: 63.5 µM [inhibitor, partial curve]",–
NC(=O)C1CCN(c2nccc(-c3ccc4c(c3)OCCO4)n2)CC1,"inconclusive: 101 µM [inhibitor, partial curve, poor fit]",–
O=C(NCCCc1ccccc1)C1CCN(c2nc(-c3ccc(Br)cc3)cs2)CC1,"inconclusive: 113 µM [inhibitor, partial curve, poor fit]",–
NC(=O)C1CCN(c2nc(-c3ccc(N4CCCCC4)nc3)cs2)CC1,"inconclusive: 31.8 µM [inhibitor, partial curve]",–
O=C(c1ccco1)N1CCN(c2nc(-c3ccc(Br)cc3)cs2)CC1,–,inactive: -11.1%
CC(=O)C1CCN(c2ncc(-c3ccc4c(c3)OCCCO4)s2)CC1,"inconclusive: 10.1 µM [inhibitor, partial curve, poor fit]",–
O=S(=O)(c1ccccc1)N1CCN(c2nc(-c3ccc(Br)cc3)cs2)CC1,"inconclusive: 89.7 µM [inhibitor, partial curve, poor fit]",–

# Given with bars between the fields: part of the list above.
SMILES | Potency | activity change, negative = inhibition
O=C(Nc1ccccc1)C1CCN(c2nc(-c3ccc(Br)cc3)cs2)CC1 | inconclusive: 63.5 µM [inhibitor, partial curve] | –
NC1CCN(c2nc(-c3ccc(Br)cc3)cs2)CC1 | active: 2.01 µM | –
O=C(NCCCc1ccccc1)C1CCN(c2nc(-c3ccc(Br)cc3)cs2)CC1 | inconclusive: 113 µM [inhibitor, partial curve, poor fit] | –
